{
  "source": "patent US20050064462A1",
  "about": "“Methods, compositions, and kits for predicting the effect of compounds on hot flash symptoms” (priority 2003, published 2005)",
  "key": {"[1]": {"test_system": "Type II Hexokinase", "experiment": "Differential gene expression in a cell following contact with reference compounds: Type II Hexokinase", "type": "cell-based", "conditions": "accession D26393, cell expressing estrogen receptor or estrogen related receptor, after contact with compound", "text": "(§1) The expression of any gene known by one of skill in the art to be associated with hot flash symptoms, without limitation, can be assessed in the methods of the invention. The present invention provides numerous such genes as described in detail, below. Further, additional genes that are associated with hot flash symptoms can readily be identified by one of skill in the art according to the disclosure of the present invention. For example, a cell that expresses the estrogen receptor or estrogen related receptor can be contacted with a reference compound known to affect hot flash symptoms. The overall expression of genes in the cell following contact with the reference compound can be compared to the overall expression of genes in a similar cell that has not been contacted with the reference compound.\n(§2) The expression of such genes to identify genes that are differentially expressed following contact with a compound with a known effect on hot flash symptoms can be monitored by any convenient method known by one of skill in the art. Most advantageously, the expression of many genes, e.g., thousands of genes, is monitored at once using a high throughput method for assessing expression of genes in the presence and absence of compounds known to affect hot flash symptoms. […]"}, "[2]": {"test_system": "2-alpha-1 globin", "experiment": "Differential gene expression in a cell following contact with reference compounds: 2-alpha-1 globin", "type": "cell-based", "conditions": "accession X56325; cell expressing estrogen receptor or estrogen related receptor, after contact with compound", "text": "as §1, §2"}, "[3]": {"test_system": "Parvalbumin", "experiment": "Differential gene expression in a cell following contact with reference compounds: Parvalbumin", "type": "cell-based", "conditions": "accession AF022935; cell expressing estrogen receptor or estrogen related receptor, after contact with compound", "text": "as §1, §2"}, "[4]": {"test_system": "Protein Tyrosine Phosphatase BAD2", "experiment": "Differential gene expression in a cell following contact with reference compounds: BAD2", "type": "cell-based", "conditions": "accession U02553, cell expressing estrogen receptor or estrogen related receptor, after contact with compound", "text": "as §1, §2"}, "[5]": {"test_system": "Argininosuccinate Synthetase", "experiment": "Differential gene expression in a cell following contact with reference compounds: Argininosuccinate Synthetase", "type": "cell-based", "conditions": "accession X12459; cell expressing estrogen receptor or estrogen related receptor, after contact with compound", "text": "as §1, §2"}, "[6]": {"test_system": "Ribonucleoside Reductase Nuclear Receptor", "experiment": "Differential gene expression in a cell following contact with reference compounds: RNR-1", "type": "cell-based", "conditions": "accession L08595; cell expressing estrogen receptor or estrogen related receptor, after contact with compound", "text": "as §1, §2"}, "[7]": {"test_system": "Calpain", "experiment": "Differential gene expression in a cell following contact with reference compounds: Calpain", "type": "cell-based", "conditions": "accession D14478; cell expressing estrogen receptor or estrogen related receptor, after contact with compound", "text": "as §1, §2"}, "[8]": {"test_system": "EST196325", "experiment": "Differential gene expression in a cell following contact with reference compounds: EST196325", "type": "cell-based", "conditions": "accession AA892522; cell expressing estrogen receptor or estrogen related receptor, after contact with compound", "text": "as §1, §2"}, "[9]": {"test_system": "Interleukin-18", "experiment": "Differential gene expression in a cell following contact with reference compounds: Interleukin-18", "type": "cell-based", "conditions": "accession AJ222813; cell expressing estrogen receptor or estrogen related receptor, after contact with compound", "text": "as §1, §2"}, "[10]": {"test_system": "ARL gene 4", "experiment": "Differential gene expression in a cell following contact with reference compounds: ARL gene 4", "type": "cell-based", "conditions": "accession X77235; cell expressing estrogen receptor or estrogen related receptor, after contact with compound", "text": "as §1, §2"}, "[11]": {"test_system": "Interleukin-1 β-converting enzyme-related protease CPP32", "experiment": "Differential gene expression in a cell following contact with reference compounds: CPP32", "type": "cell-based", "conditions": "accession U84410; cell expressing estrogen receptor or estrogen related receptor, after contact with compound", "text": "as §1, §2"}, "[12]": {"test_system": "EST208064", "experiment": "Differential gene expression in a cell following contact with reference compounds: EST208064", "type": "cell-based", "conditions": "accession AI013389; cell expressing estrogen receptor or estrogen related receptor, after contact with compound", "text": "as §1, §2"}, "[13]": {"test_system": "hot flash symptoms", "conditions": "when administered to a subject, cited from earlier work"}, "[14]": {"test_system": "Activin Beta E", "experiment": "Differential gene expression in a cell following contact with reference compounds: Activin Beta E", "type": "cell-based", "conditions": "accession AF089825; cell expressing estrogen receptor or estrogen related receptor, after contact with compound", "text": "as §1, §2"}, "[15]": {"test_system": "Multi Drug Resistance Gene", "experiment": "Differential gene expression in a cell following contact with reference compounds: Multi Drug Resistance Gene", "type": "cell-based", "conditions": "accession M81855; cell expressing estrogen receptor or estrogen related receptor, after contact with compound", "text": "as §1, §2"}, "[16]": {"test_system": "Prolactin", "experiment": "Differential gene expression in a cell following contact with reference compounds: Prolactin", "type": "cell-based", "conditions": "accession AI175539; cell expressing estrogen receptor or estrogen related receptor, after contact with compound", "text": "as §1, §2"}},
  "note": "Like-named read-outs stand apart in the source and are kept apart here. At least one compound was matched to its structure with a doubt left.",
  "data": [
    {"smiles": "C[C@]12CC[C@@H]3c4ccc(O)cc4CC[C@H]3[C@@H]1CC[C@@H]2O", "note": "[Estradiol, estradiol]", "values": [
      {"measurement": "Effect on Expression of Type II Hexokinase (HKII)", "setting": "[1]", "value": "Upregulated"},
      {"measurement": "Effect on Expression of Type II Hexokinase (HKII)", "setting": "[1]; listed as estradiol", "value": "upregulation"},
      {"measurement": "Effect on Expression of 2-alpha-1 globin", "setting": "[2]", "value": "Upregulated"},
      {"measurement": "Effect on Expression of Parvalbumin", "setting": "[3]", "value": "Upregulated"},
      {"measurement": "Effect on Expression of Protein Tyrosine Phosphatase BAD2", "setting": "[4]", "value": "Upregulated"},
      {"measurement": "Effect on Expression of Protein Tyrosine Phosphatase BAD2", "setting": "[4]; listed as estradiol", "value": "upregulation"},
      {"measurement": "Effect on Expression of Argininosuccinate Synthetase", "setting": "[5]", "value": "Upregulated"},
      {"measurement": "Effect on Expression of Ribonucleoside Reductase Nuclear Receptor (RNR-1)", "setting": "[6]", "value": "Upregulated"},
      {"measurement": "Effect on Expression of Calpain", "setting": "[7]", "value": "Upregulated"},
      {"measurement": "Effect on Expression of EST196325", "setting": "[8]", "value": "Upregulated"},
      {"measurement": "Effect on Expression of Interleukin-18 (IL-18)", "setting": "[9]", "value": "Upregulated"},
      {"measurement": "Effect on Expression of ARL gene 4", "setting": "[10]", "value": "Upregulated"},
      {"measurement": "Effect on Expression of Interleukin-1 β-converting enzyme-related protease CPP32", "setting": "[11]", "value": "Upregulated"},
      {"measurement": "Effect on Expression of EST208064", "setting": "[12]", "value": "Upregulated"},
      {"measurement": "known effect on the incidence of hot flash symptoms", "setting": "[13]", "value": "decreasing effect on hot flash symptoms"},
      {"measurement": "known effect on the incidence of hot flash symptoms", "setting": "[13]; listed as estradiol", "value": "decrease the incidence of hot flash symptoms"},
      {"measurement": "Effect on Expression of Activin Beta E", "setting": "[14]", "value": "Upregulated"},
      {"measurement": "Effect on Expression of Multi Drug Resistance Gene (MDR)", "setting": "[15]", "value": "Upregulated"},
      {"measurement": "Effect on Expression of Prolactin", "setting": "[16]", "value": "Upregulated"}
    ]}
  ]
}
